According to the supplement of paper PMC10849652:
This is one part of the list.

Amino acid sequences for entries named in this document (tags omitted). A change or cut given only in a name is not applied to a line headed by its entry.
UniProt P38606, whole entry, looked up: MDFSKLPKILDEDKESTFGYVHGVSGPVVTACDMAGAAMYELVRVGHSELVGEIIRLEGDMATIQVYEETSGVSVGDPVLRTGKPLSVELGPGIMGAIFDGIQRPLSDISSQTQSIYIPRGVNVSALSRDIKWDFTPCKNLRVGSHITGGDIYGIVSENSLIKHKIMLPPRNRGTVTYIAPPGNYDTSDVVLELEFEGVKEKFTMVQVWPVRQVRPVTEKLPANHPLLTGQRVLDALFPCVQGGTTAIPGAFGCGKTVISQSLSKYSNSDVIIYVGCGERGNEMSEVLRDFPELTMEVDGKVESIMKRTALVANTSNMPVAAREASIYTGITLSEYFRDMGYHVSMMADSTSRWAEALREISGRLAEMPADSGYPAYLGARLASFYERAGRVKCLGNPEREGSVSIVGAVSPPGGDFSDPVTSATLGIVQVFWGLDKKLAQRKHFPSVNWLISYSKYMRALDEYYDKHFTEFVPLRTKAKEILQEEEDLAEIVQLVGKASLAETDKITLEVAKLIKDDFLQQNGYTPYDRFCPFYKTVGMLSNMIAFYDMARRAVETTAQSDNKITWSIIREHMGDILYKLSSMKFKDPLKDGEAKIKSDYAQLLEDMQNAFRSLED
UniProt Q9NVT9: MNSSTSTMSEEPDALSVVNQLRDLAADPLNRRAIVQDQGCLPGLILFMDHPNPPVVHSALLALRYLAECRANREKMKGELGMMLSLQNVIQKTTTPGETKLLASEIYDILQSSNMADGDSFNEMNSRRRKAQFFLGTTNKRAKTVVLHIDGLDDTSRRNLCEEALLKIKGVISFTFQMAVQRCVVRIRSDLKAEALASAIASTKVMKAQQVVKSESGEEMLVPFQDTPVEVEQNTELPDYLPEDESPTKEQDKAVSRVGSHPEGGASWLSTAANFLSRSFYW
UniProt P17544: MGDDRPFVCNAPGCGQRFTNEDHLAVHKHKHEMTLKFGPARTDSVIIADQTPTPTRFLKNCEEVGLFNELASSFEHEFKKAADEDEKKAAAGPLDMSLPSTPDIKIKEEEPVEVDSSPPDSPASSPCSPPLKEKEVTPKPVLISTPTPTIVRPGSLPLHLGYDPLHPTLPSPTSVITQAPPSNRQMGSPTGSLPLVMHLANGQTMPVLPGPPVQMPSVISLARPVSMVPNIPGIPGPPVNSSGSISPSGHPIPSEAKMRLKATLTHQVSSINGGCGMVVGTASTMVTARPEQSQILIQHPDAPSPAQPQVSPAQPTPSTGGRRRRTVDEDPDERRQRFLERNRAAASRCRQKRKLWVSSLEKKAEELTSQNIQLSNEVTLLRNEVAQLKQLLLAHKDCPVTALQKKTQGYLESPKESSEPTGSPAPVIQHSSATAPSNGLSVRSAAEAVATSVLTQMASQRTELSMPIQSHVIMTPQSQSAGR
UniProt Q676U5: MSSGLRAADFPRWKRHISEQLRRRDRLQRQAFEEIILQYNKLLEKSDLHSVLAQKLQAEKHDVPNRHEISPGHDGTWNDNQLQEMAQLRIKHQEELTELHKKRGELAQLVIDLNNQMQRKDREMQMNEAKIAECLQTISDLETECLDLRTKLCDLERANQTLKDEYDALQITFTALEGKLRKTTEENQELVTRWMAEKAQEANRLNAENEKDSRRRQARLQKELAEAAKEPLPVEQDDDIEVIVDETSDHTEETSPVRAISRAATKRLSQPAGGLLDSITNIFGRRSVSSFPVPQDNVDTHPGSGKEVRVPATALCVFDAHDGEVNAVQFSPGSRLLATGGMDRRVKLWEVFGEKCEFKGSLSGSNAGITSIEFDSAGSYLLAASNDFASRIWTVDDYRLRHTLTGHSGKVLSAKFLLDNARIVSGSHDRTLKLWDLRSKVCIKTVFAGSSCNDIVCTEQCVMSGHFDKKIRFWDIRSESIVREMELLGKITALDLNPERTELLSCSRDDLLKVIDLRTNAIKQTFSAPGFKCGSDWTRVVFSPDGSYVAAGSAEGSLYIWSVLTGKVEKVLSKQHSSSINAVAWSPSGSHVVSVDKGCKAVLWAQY
UniProt Q5T9A4: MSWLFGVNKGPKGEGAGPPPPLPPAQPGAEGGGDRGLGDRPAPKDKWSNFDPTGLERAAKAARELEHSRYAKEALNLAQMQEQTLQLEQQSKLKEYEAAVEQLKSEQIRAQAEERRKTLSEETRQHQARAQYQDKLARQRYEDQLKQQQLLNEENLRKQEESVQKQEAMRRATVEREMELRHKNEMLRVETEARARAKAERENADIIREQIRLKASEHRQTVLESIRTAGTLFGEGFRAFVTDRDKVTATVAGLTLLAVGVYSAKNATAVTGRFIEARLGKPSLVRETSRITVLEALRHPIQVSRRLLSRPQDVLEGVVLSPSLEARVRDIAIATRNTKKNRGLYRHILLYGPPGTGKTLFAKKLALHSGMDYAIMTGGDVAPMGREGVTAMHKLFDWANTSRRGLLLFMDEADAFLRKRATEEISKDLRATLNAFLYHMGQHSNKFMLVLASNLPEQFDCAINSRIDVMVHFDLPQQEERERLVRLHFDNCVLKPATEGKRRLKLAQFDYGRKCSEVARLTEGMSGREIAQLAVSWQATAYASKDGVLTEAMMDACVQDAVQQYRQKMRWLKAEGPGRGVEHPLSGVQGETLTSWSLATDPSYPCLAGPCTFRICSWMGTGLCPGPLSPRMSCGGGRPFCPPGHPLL
UniProt P27449, whole entry, looked up: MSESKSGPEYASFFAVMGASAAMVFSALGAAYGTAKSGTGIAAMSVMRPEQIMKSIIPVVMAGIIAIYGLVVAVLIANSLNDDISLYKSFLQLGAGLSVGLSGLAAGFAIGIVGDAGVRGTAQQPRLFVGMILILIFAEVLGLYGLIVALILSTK
UniProt O75143: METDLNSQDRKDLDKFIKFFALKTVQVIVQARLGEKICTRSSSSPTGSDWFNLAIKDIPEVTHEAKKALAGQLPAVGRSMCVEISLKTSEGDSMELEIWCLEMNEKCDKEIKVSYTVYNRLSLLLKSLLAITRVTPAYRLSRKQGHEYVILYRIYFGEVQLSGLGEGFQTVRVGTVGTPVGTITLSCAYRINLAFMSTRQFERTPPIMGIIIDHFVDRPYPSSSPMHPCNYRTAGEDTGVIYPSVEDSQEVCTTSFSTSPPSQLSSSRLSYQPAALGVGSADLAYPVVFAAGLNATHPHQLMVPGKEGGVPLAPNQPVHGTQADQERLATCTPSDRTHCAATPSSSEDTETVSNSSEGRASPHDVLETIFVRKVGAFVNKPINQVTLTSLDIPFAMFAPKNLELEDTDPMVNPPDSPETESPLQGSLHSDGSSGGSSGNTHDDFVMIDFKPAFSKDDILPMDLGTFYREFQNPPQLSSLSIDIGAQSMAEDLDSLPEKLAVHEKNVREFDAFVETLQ
UniProt P61421, whole entry, looked up: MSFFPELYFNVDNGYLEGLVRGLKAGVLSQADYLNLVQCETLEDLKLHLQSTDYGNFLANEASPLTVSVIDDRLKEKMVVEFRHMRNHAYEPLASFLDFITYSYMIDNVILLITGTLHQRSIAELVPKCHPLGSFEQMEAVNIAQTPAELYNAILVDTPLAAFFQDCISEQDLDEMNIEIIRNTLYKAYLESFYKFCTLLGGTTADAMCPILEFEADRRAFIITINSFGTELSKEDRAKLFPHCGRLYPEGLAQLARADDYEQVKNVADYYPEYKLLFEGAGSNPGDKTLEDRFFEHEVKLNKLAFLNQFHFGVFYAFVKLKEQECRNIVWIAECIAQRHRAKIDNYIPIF

Experiments:
Assay in all cases: log2 fold change, soluble protein after heating vs DMSO (PISA); higher = thermal stabilisation; K562 cells, 10 uM, 30 min; active = over 0.2 and 3.5 SD of the protein, either way, in both replicates (recomputed)
[1] = compound: C1=CC=C(C=C1)[C@H](COC2=CC3=C(C=C2)NC(=O)N3)NC(=O)C4=CC=CN(C4=O)CC5=CC(=C(C=C5)F)F
How it was run: (§1)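 K562 cells at 2×10^6 cells/mL were treated with 10 μM compound for 30 min. Aliquots were heated for 3 min across 48°C-58°C, pooled, and extracted in PBS with 0.5% NP-40 at 4°C; soluble protein was the supernatant after 21,000xg for 90 min. Soluble protein was quantified by TMTpro 16plex LC-MS/MS with channel sums equalised, and reported as log2 fold change in thermal stability against DMSO controls, with values from duplicates.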

[2] = compound: CC1=C(SC2=C1C(=N[C@H](C3=NN=C(N32)C)CC(=O)N)C4=CC=C(C=C4)Cl)C
How it was run: as §1

[3] = compound: CC1=C2C(=CC=C1)N=C(N(C2=O)C3=CC=CC=C3C)CN4C=NC5=C(N=CN=C54)N
How it was run: as §1

[4] = compound: Cc1sc2c(c1C)C(c1ccc(Cl)cc1)=N[C@@H](CC(=O)OC(C)(C)C)c1nnc(C)n1-2
How it was run: as §1

[5] = compound: c1ccc([C@@H]2C[C@H]2NC2CCNCC2)cc1
How it was run: as §1

Measured: log2 fold change

ATP6V1A (UniProt P38606)
inactive: [1] -0.003 | [2] 0.008 | [3] 0.025 | [4] -0.03 | [5] -0.028

ARMC1 (UniProt Q9NVT9)
inactive: [1] -0.065 | [2] 0.029 | [3] 0.012 | [4] -0.01 | [5] 0.001

ATF7 isoform 6 (UniProt P17544)
inactive: [1] -0.097 | [2] 0 | [3] -0.187 | [4] 0.184 | [5] -0.034

ATG16L1 (UniProt Q676U5)
inactive: [1] -0.018 | [2] 0.047 | [3] 0.023 | [4] -0.011 | [5] -0.013

ATAD3B (UniProt Q5T9A4)
inactive: [1] -0.02 | [2] -0.023 | [3] -0.055 | [4] 0.123 | [5] 0.025

ATP6V0C (UniProt P27449)
inactive: [1] 0.024 | [2] -0.156 | [3] -0.543 | [4] -0.228 | [5] -0.081

ATG13 isoform 5 (UniProt O75143)
inactive: [1] -0.012 | [2] 0.064 | [3] -0.007 | [4] 0.01 | [5] 0.061

ARPC1B (UniProt O15143)
inactive: [1] 0.035 | [2] 0.004 | [3] -0.175 | [4] -0.051 | [5] -0.032

ATP6V0D1 (UniProt P61421)
inactive: [1] 0.031 | [2] 0.008 | [3] 0.013 | [4] -0.169 | [5] -0.221
